The source of these data is article PMC5967306.

The chains behind the UniProt entries cited, without tags or fusion partners. Where a name states a change or a piece, a line headed by the entry shows the natural chain unless it says otherwise.
UniProt Q4G0A6: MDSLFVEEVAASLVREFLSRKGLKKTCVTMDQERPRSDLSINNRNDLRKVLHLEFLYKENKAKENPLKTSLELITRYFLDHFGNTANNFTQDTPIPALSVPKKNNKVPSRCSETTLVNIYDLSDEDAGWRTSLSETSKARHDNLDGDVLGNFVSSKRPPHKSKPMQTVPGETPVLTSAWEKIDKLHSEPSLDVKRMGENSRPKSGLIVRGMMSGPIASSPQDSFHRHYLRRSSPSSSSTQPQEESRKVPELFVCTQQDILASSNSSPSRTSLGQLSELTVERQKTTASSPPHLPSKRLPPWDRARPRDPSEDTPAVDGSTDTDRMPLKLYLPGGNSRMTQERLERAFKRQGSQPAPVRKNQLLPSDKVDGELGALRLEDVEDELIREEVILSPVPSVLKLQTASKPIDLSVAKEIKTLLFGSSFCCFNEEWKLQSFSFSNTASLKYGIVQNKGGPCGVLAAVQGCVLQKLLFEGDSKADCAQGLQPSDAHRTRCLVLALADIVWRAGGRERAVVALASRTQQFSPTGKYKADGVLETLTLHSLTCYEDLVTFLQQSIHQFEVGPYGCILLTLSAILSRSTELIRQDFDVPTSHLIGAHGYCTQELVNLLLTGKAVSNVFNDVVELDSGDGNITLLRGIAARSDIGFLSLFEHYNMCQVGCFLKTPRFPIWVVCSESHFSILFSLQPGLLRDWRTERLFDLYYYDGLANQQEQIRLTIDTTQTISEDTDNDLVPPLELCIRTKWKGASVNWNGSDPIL

Results are given in words; binding and its absence hold for the method and conditions named. In cells and extracts the contact can be indirect. A result given as binding can be weak or reduced; the word gives no strength.

The experiment addresses FLAG-tagged mutant FAM188B with deletion of USP7-binding motif-2 (human) (UniProt Q4G0A6). Briefly: co-IP; FLAG-tagged wild-type or deletion-mutant FAM188B overexpressed in HCT-116 cells, immunoprecipitated with anti-FLAG antibodies, blotted for USP7.

On to “USP7 (from UniProt Q93009 1-1102) (enzyme)”, for which the binding entry is reported as “binds”.
